PubChem BioAssay AID1224826, NIAID – 2016

- Aim: 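Knock-downs that raise or lower Tnf reporter signal after endotoxin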 (primary screen)
- Cell system: RAW264.7 G9 macrophages from mouse bearing reporters for p65 (GFP) and the Tnf promoter (mCherry)
- Knock-down reagent: siRNA pool against mouse genes, 100 nM
- Duration: 16 h of LPS stimulation, after 2 days of siRNA transfection
- Conditions: bacterial lipopolysaccharide (Salmonella minnesota R595), 10 ng/ml
- Measurement: 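Imaged Tnf reporter mCherry in nuclei, minus background, normalised per plate to the median and expressed as robust z-scores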
- Direction: Tnf reporter robust z-score: higher = stronger Tnf promoter reporter signal after LPS
- Call rule: 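Called active when robust z-score is at most -1.3, matching the median of the Tlr4 knock-down control, or over 3; control wells and wells with under 50 cells never active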
- Calls: active = Tnf reporter clearly lowered or raised; inactive = no clear change in Tnf reporter
The deposit covers about 17,000 reagents; below is a part drawn at random. Of all reagents, about 1,110 (6.6%) were called active. 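Active means lowered or raised reporter signal; replicate intensities are raw and not normalised per plate.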 A number with no mark means an inactive call. The numbers tell different reagents against one gene apart. Further read-outs or replicates are left out here.

gene	pool no.	Tnf reporter robust z-score	fewer than 50 cells in well
Ostc	1		fewer than 50 cells per well; well left out of calls
Stk3	1	-0.69	enough cells in well
Scarb2	1	-0.43	enough cells in well
L2hgdh	1	0.91	enough cells in well
Chrnb4	1	-1.74 (active)	enough cells in well
Plscr1	1	-0.64	enough cells in well
Or5b12b	1	1.06	enough cells in well
Fam3b	1	1.66	enough cells in well
Pcdhb16	1	-0.4	enough cells in well
Cd81	1	-0.48	enough cells in well
Lrrc24	1	3.18 (active)	enough cells in well
Kif5b	1	1.07	enough cells in well
Pln	1	-0.16	enough cells in well
Slit3	1	-0.8	enough cells in well
Ppm1d	1	1.34	enough cells in well
Mms22l	1	-0.84	enough cells in well
Rgn	1	0.93	enough cells in well
Spen	1	-0.56	enough cells in well
Or13j1	1		fewer than 50 cells per well; well left out of calls
Mtpap	1	2.49	enough cells in well
Cep78	1	0.43	enough cells in well
Or14j3	1	-1.62 (active)	enough cells in well
Ier3ip1	1	-0.98	enough cells in well
Zng1	1	0.28	enough cells in well
Aanat	1	0.37	enough cells in well
Thsd7b	1	-0.12	enough cells in well
Tmem179b	1		fewer than 50 cells per well; well left out of calls
Ndufs7	1	0.12	enough cells in well
Mapk4	1	0.5	enough cells in well
Uqcc2	1	-0.13	enough cells in well
Nosip	1	0.19	enough cells in well
Skap2	1	0.16	enough cells in well
Tcl1	1	0.34	enough cells in well
Rps23	1		fewer than 50 cells per well; well left out of calls
Drc8	1		fewer than 50 cells per well; well left out of calls
Zfp24	1	-0.87	enough cells in well
Wdr17	1	0.65	enough cells in well
Nfia	1	0.48	enough cells in well
Nfia	2	-0.93	enough cells in well
Eras	1	0.3	enough cells in well
Pag1	1	-0.95	enough cells in well
Szt2	1	0.41	enough cells in well
Bet1	1	1.13	enough cells in well
Zbtb48	1	1.19	enough cells in well
Kcnk2	1	0.9	enough cells in well
Or14j1	1	1.38	enough cells in well
Slc25a11	1	3.17 (active)	enough cells in well
Casp14	1	-0.87	enough cells in well
Sncaip	1	5.51 (active)	enough cells in well
Mrps2	1	0.4	enough cells in well
Lypd3	1		fewer than 50 cells per well; well left out of calls
Crip1	1	-0.79	enough cells in well
Gzf1	1	-0.19	enough cells in well
Slc39a5	1	-1.23	enough cells in well
Wdr62	1		fewer than 50 cells per well; well left out of calls
Ly6h	1	0.55	enough cells in well
Ift122	1	0.57	enough cells in well
Or8g23	1	0.27	enough cells in well
